Results published in PubChem BioAssay AID2517 (National Center for Advancing Translational Sciences (NCATS), 2010).
Among all 350,000 compounds or so, about 1,200 (0.34%) were called active. Inconclusive means that the source gave no clear call. Such entries were picked first, then a sample of the others. The call rests on the fitted dose curve; in most records, active means well fitted inhibition curve with a large enough effect; inconclusive means small, poorly fitted or top-dose-only effect; inactive means no such curve, though single readings can be large or run the other way. Potencies of inconclusive entries are doubtful fits and often do not repeat.

Sequences of proteins named here, by UniProt entry; tags and fusion partners are left off.
UniProt P27695, whole entry, looked up: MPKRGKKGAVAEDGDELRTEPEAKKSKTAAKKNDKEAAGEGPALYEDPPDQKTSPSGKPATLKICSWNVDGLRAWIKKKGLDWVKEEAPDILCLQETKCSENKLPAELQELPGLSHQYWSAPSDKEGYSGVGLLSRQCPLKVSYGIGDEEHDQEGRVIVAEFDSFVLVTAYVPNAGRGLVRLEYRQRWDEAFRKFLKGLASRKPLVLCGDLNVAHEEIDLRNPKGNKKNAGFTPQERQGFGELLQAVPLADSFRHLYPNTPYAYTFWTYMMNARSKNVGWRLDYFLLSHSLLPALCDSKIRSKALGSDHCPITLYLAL

biological target: DNA repair nuclease/redox regulator APEX1 (Homo sapiens) (UniProt P27695); assay: qHTS Assay for Inhibitors of the Human Apurinic/apyrimidinic Endonuclease 1 (APE1); conditions: recombinant APE1, TAMRA/BHQ-2 abasic DNA cleavage fluorescence; activity change, negative = inhibition: at 65.8 µM (top of the series); further: nearly all actives have a fitted effect of over 55% in size;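 on activity change, negative = inhibition: plate controls were vehicle for no effect and reference inhibitor for full effect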
How it was run: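 Measures dequenching upon AP-site incision of a 5'-TAMRA/3'-BHQ-2 THF-containing duplex, 50 nM; human APE1 0.75 nM after 15 min room-temperature exposure to compound; kinetic three-point read at one-minute spacing.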
Potency means the concentration at half of the fitted maximal effect.

SMILES | Potency | activity change, negative = inhibition
NCCNS(=O)(=O)c1cccc2cnccc12 | inconclusive: 20 µM [inhibitor, single point] | 
CCC(=O)NC(c1ccc(C)cc1)c1ccc2cccnc2c1O (stereo not given) |  | inactive: -11.2%
O=C(Cn1c(=O)[nH]c2ccccc2c1=O)N1CCN(c2cccc(Cl)c2)CC1 | inconclusive: 17.8 µM [inhibitor, single point] | 
O=C(NNCc1ccc(O)cc1)c1ccccc1Cl |  | inactive: -0.255%
Cc1ccsc1/C=N/n1c(-c2ccccn2)n[nH]c1=S |  | inactive: 0.559%
C/C(N)=C(/C#N)C(=O)COC(=O)c1cc2c(s1)CCC(C)C2 (stereo not given) | inconclusive: 22.4 µM [inhibitor, single point] | 
CCCC[C@@H](C=O)NC(=O)[C@H](CC(C)C)NC(=O)[C@H](CC(C)C)NC(C)=O | inactive | 
O=C(CSc1nc(-c2ccccc2)c(-c2ccccc2)[nH]1)N1CCN(S(=O)(=O)c2ccccc2)CC1 | inconclusive: 44.7 µM [inhibitor, single point] | 
COC1C(O)COC1/C=C/c1ccccc1 (stereo not given) | inconclusive: 8.91 µM [inhibitor, single point] | 
CCCCCCCC#Cc1ccccc1C(NC(=O)OC)C(C(=O)OC)C(=O)OC (stereo not given) | inconclusive: 8.91 µM [inhibitor, single point] | 
CC1(C)Cc2c(C#N)c(N)n(-c3ccccc3)c(=O)c2CO1 | inconclusive: 44.7 µM [inhibitor, single point] | 
O=[N+]([O-])c1ccc(O)c(C=Nc2ccc3nc(-c4ccccc4)[nH]c3c2)c1 |  | inactive: 1.13%
COCCCNC(=S)N/N=C/c1ccc(O)cc1 |  | inactive: 0.609%
c1csc(Cc2nn3c(-c4ccncc4)nnc3s2)c1 | inconclusive: 35.5 µM [inhibitor, partial curve] | 
COCCNC(=S)N/N=C(\C)c1cc2ccccc2o1 | inconclusive: 1.26 µM [inhibitor, full curve] | 
NS(=O)(=O)c1ccc(NC(=O)COC(=O)c2ccc([N+](=O)[O-])s2)cc1 | inconclusive: 39.8 µM [inhibitor, single point] | 
NC(=S)N/N=C/c1cc([N+](=O)[O-])ccc1Cl | inconclusive: 1.12 µM [inhibitor, full curve, poor fit] | 
Cc1cccc(OCC(=O)Nc2cc(NC(=O)COc3cccc(C)c3C)cc(C(=O)O)c2)c1C | inconclusive: 26.7 µM [inhibitor, single point] | 
CC/C(=N\Nc1ccc([N+](=O)[O-])cc1)c1ccccc1 | inconclusive: 15.8 µM [inhibitor, single point] | 
N#Cc1c(N)sc(=S)c2c1CCCCC2 | inconclusive: 31.6 µM [inhibitor, single point] | 

No new results follow: entries from further up.
SMILES | Potency | activity change, negative = inhibition
CC1(C)Cc2c(C#N)c(N)n(-c3ccccc3)c(=O)c2CO1 | inconclusive: 44.7 µM [inhibitor, single point] | 
O=[N+]([O-])c1ccc(O)c(C=Nc2ccc3nc(-c4ccccc4)[nH]c3c2)c1 |  | inactive: 1.13%
